Assay results: doi:10.1101/526509
No constants are given. Whether binding was seen depends on the method and setting. Binding seen in cells or lysates may run through a third protein. Some binding calls cover weakened binding; strength is not graded here. Where a sequence is shown, tags or fusion partners need not be part of it.

Sequences of proteins named here, by UniProt entry; tags and fusion partners are left off.
UniProt P70569: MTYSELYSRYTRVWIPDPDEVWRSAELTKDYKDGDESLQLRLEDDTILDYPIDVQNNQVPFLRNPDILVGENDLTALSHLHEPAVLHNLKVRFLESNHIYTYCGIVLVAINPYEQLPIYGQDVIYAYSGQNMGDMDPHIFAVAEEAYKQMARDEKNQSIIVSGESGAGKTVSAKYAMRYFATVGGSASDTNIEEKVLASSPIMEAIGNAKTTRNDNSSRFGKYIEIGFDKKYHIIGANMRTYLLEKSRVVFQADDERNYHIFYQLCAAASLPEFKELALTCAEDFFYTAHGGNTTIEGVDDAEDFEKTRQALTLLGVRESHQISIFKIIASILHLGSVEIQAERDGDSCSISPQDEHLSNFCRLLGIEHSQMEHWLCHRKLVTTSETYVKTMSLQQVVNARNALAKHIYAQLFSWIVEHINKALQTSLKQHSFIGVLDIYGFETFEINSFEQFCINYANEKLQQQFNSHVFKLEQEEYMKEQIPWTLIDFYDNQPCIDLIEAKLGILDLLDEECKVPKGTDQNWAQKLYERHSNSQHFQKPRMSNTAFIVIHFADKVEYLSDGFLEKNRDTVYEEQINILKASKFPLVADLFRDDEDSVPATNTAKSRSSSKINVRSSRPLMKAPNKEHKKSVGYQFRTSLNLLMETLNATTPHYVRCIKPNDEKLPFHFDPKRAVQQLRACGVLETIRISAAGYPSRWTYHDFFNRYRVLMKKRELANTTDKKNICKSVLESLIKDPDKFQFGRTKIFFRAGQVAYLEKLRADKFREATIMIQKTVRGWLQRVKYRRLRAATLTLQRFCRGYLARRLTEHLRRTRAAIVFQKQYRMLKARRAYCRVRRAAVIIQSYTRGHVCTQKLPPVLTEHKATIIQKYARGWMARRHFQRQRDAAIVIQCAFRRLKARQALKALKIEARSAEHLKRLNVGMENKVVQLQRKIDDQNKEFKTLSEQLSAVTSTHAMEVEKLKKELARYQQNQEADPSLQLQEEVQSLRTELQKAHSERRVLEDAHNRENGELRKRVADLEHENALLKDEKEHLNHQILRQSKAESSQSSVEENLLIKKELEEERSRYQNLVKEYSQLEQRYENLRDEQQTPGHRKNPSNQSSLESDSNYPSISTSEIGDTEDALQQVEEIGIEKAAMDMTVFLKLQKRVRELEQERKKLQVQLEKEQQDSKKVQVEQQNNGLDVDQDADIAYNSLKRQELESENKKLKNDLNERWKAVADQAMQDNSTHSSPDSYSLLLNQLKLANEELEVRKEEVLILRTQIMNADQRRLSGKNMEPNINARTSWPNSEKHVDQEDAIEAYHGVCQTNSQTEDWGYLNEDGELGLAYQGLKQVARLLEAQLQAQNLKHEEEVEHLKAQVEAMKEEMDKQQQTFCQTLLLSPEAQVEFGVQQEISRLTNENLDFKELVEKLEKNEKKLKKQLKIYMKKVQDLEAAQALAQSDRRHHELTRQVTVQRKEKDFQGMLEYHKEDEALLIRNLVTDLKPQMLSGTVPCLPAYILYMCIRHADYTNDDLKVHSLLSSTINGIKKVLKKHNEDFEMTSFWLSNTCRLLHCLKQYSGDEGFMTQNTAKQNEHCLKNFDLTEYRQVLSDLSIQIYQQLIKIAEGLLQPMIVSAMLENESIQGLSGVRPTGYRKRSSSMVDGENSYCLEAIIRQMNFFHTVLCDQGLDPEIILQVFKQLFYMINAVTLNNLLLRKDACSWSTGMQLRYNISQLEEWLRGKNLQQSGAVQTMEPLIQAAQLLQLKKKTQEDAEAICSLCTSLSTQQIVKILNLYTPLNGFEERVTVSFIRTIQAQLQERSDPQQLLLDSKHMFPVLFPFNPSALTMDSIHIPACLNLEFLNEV
UniProt Q9QYF3: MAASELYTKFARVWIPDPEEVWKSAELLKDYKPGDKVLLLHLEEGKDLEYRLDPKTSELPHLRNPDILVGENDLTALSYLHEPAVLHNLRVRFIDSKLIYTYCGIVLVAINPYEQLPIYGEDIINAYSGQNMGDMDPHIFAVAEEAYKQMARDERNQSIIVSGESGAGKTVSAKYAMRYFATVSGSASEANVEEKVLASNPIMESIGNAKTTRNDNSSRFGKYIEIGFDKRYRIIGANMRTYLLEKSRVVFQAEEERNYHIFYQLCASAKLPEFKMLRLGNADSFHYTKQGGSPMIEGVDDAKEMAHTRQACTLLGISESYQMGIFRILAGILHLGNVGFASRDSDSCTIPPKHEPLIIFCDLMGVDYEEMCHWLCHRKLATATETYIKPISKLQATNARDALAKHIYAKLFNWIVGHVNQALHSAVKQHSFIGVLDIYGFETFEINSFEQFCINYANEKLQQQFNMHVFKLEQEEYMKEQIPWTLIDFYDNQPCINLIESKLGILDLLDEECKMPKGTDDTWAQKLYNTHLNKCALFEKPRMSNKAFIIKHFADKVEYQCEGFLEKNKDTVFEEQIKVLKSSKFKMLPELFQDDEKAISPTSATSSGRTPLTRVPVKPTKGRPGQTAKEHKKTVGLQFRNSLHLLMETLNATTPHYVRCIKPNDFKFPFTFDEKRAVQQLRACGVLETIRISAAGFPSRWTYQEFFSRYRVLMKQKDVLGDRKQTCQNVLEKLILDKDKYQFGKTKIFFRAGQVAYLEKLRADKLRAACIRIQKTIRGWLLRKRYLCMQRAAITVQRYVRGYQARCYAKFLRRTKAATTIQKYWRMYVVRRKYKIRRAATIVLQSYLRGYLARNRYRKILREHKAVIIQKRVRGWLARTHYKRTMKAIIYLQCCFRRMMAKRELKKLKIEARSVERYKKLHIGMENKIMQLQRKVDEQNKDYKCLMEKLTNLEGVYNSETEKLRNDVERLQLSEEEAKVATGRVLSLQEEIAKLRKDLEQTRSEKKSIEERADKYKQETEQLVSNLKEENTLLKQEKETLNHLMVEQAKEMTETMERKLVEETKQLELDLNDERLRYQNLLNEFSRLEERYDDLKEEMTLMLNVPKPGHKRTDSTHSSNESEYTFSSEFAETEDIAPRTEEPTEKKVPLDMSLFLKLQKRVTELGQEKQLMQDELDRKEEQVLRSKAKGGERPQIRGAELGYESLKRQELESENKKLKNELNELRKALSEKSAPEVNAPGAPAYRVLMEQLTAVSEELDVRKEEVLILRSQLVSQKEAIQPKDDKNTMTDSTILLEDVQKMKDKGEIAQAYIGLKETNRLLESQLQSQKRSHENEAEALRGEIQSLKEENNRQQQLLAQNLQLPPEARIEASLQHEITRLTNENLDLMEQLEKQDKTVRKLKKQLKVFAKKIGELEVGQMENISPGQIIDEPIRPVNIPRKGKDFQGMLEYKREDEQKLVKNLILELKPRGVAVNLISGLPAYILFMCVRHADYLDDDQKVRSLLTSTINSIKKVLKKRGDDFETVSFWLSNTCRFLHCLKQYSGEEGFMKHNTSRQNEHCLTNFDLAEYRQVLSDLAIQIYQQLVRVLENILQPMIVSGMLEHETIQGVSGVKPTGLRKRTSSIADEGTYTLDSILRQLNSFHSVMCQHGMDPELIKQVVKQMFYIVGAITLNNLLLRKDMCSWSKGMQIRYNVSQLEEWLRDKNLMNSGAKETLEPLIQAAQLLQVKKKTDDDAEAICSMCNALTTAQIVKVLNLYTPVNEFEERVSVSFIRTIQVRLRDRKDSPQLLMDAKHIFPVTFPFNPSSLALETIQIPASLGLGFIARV
UniProt Q63357: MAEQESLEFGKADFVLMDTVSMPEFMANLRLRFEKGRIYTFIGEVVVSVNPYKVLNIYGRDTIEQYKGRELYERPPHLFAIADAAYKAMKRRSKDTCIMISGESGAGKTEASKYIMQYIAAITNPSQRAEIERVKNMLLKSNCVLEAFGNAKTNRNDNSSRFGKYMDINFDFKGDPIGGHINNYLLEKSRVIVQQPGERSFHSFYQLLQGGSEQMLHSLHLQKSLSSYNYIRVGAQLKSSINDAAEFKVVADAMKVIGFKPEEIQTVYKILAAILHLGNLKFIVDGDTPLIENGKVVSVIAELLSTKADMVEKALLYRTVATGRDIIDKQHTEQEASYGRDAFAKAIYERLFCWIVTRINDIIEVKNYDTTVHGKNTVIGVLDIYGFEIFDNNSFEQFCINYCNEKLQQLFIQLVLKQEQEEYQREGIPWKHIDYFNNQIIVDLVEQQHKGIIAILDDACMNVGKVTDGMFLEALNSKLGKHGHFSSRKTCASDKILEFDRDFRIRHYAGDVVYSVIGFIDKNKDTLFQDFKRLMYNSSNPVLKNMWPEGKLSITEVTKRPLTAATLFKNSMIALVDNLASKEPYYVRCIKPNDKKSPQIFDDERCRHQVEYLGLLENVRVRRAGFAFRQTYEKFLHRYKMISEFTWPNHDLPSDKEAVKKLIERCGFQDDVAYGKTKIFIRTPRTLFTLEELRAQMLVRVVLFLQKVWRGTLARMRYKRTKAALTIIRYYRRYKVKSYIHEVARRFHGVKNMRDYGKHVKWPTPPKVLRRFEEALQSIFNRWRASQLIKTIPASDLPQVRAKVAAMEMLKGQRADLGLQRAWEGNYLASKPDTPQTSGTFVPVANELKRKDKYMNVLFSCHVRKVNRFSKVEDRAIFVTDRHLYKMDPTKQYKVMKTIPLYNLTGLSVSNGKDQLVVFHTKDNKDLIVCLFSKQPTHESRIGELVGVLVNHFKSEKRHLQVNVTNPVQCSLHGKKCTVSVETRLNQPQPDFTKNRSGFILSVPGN

What follows are substances tested against T1, bio-GFP-synaptopodin (mouse) (UniProt Q8CC35) (assay: pull-down).
T1 sequence (chain, biotin (biotinylated; HA-BirA co-expressed)): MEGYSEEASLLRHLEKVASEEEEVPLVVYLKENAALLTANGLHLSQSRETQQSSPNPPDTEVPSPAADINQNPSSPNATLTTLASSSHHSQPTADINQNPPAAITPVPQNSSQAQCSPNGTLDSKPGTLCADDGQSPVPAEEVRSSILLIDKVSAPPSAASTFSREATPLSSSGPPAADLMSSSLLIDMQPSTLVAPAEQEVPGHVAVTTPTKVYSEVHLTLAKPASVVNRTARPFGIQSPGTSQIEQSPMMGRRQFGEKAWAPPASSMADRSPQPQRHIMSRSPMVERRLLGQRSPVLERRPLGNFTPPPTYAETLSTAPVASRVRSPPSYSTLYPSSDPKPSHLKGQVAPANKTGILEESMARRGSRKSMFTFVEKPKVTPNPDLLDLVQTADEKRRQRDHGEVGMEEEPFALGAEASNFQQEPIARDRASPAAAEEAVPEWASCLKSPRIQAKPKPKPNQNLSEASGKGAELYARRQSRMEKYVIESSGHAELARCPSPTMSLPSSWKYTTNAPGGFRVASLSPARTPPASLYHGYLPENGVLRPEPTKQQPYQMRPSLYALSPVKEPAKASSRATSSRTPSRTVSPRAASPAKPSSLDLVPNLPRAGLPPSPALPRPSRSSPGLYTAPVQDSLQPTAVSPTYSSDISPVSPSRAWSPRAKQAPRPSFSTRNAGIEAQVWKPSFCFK

Row | binding | Substance
1 | binds | myosin Vb (from UniProt P70569 1-1846)
2 | binds | myosin Va (from UniProt Q9QYF3 1-1828)
3 | binds | myosin Id (from UniProt Q63357 1-1006)
